Experimental data taken from patent publication US20220184084A1, “COMPOSITIONS AND METHODS FOR TREATING CUSHING'S DISEASE” (The Regents of the University of California, priority 2019, published 2022).

Tests used:
AtT20 cells = assay: AtT20 cell proliferation IC50 (CellTiter-Glo); type: cell-based, murine; conditions: Mus musculus, AtT20, 72 h, 3 days, read-out: IC50 for proliferation inhibition
Experimental: The IC50 values were calculated using sigmoidal dose-response curve (GraphPad Prism).
In one aspect, the invention provides a “gain of signal” ACTH AlphaLISA assay useful for a high throughput screen (HTS) evaluation. Using ACTH AlphaLISA assay described herein in combination with nuclei staining (Hoechst 33342 dye), the inventors screened an annotated kinase inhibitor library.

[1] = tested on: AtT20 cells stably transfected with POMC promoter driven luciferase; assay: POMC promoter-driven luciferase assay (POMC-Luc); type: cell-based, murine; conditions: Mus musculus, 24 h, 1 day, read-out: EC50 for POMC transcription inhibition
Experimental: FIG. 6H depicts the results of a study wherein AtT20 cells were treated with panobinostat and burparlisib simultaneously to detect the effects on POMC transcription.
Using a POMC promoter-driven luciferase assay, the direct actions of the aforementioned compounds on POMC transcription was examined.

EC50 [1]: 0.5 µM
SMILES: O=C(CCCCCCC(=O)Nc1ccccc1)NO [vorinostat]
IC50 (AtT20 cells): 2 µM
